From the supplement of paper PMC10849652
This is one part of the list.

By UniProt entry, the sequences of proteins in these tests, tags left out. Where a name states a change or a piece, a line headed by the entry shows the natural chain unless it says otherwise.
UniProt Q5BJD5: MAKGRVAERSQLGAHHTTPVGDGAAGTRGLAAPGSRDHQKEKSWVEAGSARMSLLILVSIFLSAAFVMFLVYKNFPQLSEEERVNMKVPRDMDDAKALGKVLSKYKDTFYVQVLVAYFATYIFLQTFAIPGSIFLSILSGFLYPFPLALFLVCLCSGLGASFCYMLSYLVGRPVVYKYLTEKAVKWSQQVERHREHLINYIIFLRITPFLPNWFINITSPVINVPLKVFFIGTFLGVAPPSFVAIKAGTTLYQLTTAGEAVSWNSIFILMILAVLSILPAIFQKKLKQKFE
UniProt Q92545: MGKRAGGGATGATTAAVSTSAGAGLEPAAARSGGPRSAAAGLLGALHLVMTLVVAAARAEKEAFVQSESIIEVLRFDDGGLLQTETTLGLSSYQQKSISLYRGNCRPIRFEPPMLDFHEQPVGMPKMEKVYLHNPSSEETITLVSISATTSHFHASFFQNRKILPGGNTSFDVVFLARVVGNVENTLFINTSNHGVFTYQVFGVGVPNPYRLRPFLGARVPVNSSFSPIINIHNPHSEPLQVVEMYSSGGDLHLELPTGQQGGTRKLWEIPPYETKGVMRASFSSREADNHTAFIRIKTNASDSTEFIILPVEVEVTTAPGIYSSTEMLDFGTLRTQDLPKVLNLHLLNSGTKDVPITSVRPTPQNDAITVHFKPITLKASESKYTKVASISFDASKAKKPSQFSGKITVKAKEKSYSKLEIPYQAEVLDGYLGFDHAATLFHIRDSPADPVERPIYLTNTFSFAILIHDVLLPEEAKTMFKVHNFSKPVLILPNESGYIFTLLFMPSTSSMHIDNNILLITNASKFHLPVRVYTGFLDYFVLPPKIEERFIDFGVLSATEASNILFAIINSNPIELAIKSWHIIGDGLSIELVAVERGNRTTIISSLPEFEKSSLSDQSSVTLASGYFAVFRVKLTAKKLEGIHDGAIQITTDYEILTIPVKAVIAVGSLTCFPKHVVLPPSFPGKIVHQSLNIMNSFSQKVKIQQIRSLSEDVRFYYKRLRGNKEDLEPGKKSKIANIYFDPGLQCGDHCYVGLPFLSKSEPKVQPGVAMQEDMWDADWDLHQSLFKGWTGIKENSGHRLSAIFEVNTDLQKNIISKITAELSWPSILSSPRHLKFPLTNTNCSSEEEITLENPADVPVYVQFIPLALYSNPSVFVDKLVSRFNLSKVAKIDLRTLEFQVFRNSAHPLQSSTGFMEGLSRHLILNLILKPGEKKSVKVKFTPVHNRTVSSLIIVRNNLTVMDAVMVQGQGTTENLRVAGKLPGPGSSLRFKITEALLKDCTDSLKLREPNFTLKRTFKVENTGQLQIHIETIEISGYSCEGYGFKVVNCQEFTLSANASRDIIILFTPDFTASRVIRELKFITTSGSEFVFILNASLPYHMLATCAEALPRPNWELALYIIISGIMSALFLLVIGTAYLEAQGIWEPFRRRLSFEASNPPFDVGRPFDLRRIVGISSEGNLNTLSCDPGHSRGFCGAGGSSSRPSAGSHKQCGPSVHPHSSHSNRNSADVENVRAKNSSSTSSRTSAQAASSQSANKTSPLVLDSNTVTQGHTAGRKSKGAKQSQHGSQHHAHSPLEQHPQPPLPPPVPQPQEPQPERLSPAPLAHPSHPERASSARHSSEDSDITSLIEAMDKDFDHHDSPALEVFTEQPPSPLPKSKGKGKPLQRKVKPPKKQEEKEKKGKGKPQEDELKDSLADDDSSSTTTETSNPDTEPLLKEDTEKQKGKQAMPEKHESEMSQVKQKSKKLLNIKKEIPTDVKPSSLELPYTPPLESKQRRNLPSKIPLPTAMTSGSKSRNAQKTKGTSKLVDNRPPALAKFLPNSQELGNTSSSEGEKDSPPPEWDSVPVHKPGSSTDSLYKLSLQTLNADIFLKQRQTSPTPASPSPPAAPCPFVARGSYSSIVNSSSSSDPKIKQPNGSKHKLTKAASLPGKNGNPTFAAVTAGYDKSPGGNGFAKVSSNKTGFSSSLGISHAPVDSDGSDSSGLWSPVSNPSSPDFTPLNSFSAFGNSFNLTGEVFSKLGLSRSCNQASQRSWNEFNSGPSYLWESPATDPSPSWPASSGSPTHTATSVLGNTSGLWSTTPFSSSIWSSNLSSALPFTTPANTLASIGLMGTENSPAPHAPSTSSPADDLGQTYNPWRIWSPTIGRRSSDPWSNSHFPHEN
UniProt Q8NCS4: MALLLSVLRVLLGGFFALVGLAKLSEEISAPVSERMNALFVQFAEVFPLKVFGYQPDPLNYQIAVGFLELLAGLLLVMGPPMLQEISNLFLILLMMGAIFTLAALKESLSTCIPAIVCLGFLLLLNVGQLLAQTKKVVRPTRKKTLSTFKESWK
UniProt Q12767: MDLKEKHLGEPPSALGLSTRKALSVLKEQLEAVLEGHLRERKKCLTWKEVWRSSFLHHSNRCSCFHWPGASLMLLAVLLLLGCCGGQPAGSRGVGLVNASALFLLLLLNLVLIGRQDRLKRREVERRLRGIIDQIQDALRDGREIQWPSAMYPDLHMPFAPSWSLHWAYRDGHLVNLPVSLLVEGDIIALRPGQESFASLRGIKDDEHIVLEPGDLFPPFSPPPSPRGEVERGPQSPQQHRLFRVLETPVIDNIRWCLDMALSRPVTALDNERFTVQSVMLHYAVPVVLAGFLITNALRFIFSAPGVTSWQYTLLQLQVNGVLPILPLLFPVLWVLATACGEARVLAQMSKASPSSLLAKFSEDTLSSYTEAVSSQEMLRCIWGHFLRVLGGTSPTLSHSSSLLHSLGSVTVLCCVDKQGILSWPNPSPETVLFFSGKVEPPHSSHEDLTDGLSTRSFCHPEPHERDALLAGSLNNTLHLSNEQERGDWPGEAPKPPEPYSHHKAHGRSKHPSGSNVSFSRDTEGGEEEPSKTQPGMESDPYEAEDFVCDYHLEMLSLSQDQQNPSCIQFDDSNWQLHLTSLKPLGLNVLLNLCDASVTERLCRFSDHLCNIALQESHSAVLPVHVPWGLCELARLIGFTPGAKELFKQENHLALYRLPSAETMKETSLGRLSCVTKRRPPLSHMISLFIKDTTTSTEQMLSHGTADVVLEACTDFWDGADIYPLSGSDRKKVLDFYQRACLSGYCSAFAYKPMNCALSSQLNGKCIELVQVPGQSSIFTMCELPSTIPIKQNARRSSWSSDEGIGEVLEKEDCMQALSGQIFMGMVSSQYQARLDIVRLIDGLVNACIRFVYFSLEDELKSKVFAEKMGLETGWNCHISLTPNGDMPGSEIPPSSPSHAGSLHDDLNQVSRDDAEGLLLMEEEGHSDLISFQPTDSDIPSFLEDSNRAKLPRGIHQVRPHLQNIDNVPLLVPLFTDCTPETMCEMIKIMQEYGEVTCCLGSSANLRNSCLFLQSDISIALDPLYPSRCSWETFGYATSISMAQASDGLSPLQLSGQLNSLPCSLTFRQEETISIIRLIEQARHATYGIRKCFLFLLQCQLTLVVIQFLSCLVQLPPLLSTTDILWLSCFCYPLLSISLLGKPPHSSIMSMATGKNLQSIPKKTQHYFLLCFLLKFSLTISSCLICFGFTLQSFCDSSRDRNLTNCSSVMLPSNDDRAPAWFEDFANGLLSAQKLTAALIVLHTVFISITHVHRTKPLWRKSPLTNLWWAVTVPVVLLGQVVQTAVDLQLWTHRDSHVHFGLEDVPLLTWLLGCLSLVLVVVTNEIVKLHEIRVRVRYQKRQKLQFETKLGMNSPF
UniProt Q9BRR3: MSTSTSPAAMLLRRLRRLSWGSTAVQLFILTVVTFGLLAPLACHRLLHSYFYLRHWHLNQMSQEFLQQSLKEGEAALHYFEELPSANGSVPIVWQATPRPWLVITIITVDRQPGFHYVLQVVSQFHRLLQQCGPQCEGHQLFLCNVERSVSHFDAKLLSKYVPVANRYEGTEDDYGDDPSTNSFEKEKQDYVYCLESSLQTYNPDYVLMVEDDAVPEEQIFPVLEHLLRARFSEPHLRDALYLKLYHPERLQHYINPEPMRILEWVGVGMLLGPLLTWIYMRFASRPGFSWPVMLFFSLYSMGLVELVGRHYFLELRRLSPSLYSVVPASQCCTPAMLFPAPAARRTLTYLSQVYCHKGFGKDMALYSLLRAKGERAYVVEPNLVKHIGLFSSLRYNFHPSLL
UniProt Q08117: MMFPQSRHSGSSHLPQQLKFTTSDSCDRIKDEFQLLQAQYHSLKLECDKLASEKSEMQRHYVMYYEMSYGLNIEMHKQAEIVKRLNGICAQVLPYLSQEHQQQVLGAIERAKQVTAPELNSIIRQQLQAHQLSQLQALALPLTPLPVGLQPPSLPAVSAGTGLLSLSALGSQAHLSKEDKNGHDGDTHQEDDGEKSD
UniProt Q9Y519: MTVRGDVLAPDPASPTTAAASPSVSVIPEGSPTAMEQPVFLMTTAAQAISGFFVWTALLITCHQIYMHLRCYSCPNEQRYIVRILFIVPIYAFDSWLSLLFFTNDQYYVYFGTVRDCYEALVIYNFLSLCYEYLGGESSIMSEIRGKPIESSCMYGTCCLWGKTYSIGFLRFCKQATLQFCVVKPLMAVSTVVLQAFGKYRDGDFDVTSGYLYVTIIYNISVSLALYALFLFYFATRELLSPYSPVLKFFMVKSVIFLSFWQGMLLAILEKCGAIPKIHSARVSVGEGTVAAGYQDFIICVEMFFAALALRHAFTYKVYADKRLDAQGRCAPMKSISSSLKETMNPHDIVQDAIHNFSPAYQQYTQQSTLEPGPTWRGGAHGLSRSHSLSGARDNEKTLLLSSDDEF
UniProt P21580: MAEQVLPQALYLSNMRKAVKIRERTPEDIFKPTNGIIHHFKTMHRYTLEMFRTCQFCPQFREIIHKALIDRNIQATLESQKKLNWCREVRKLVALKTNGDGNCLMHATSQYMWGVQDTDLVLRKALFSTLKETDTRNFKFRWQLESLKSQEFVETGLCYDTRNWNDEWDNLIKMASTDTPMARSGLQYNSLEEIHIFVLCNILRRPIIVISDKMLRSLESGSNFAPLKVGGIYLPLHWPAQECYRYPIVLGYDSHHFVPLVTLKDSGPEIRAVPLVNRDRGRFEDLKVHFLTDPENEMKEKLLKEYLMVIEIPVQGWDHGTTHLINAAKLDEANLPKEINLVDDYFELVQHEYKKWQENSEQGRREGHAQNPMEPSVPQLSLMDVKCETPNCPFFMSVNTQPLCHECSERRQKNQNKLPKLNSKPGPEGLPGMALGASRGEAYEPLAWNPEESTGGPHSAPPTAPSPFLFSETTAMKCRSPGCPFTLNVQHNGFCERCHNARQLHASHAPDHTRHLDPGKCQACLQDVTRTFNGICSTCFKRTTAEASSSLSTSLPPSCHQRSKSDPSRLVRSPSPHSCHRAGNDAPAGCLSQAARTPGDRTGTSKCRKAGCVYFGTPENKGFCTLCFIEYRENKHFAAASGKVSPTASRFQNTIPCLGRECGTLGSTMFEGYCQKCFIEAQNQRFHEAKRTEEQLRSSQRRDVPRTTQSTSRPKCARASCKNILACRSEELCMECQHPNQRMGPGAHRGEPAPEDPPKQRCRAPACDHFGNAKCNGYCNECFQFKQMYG
UniProt Q6PL24: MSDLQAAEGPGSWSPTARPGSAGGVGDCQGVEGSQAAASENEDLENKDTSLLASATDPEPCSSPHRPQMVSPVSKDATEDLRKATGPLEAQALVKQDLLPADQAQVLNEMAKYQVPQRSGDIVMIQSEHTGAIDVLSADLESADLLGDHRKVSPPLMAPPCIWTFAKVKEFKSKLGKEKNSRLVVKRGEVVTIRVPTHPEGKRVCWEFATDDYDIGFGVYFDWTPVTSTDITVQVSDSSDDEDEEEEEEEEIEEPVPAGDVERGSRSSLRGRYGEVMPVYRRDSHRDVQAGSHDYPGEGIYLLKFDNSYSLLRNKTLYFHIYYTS
UniProt Q9BXS4: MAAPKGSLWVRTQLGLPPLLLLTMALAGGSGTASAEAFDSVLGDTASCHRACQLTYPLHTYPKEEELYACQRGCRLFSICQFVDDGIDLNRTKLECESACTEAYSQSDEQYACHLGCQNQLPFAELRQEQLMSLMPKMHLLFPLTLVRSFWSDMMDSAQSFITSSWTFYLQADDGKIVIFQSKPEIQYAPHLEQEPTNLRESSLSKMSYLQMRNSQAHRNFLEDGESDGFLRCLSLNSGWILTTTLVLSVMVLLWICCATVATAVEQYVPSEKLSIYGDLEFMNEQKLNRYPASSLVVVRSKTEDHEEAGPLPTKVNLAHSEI
UniProt Q5SWH9: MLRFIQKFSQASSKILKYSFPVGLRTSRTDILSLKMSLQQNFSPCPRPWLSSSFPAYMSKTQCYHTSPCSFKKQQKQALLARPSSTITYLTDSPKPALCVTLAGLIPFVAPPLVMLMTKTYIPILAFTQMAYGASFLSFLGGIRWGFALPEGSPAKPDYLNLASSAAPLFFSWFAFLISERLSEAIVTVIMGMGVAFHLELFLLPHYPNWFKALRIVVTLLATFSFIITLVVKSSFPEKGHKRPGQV
UniProt Q7Z7N9: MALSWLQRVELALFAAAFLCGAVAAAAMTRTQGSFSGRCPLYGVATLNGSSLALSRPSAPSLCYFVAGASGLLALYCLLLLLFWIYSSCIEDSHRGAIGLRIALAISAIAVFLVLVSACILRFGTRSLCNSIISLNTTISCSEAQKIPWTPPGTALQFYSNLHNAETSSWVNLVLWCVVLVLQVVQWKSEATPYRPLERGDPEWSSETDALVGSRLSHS

Tests used:
Assay in all cases: log2 fold change, soluble protein after heating vs DMSO (PISA); higher = thermal stabilisation; K562 cells, 10 uM, 30 min; active = over 0.2 and 3.5 SD of the protein, either way, in both replicates (recomputed)
saracatinib = compound: CN1CCN(CCOc2cc(OC3CCOCC3)c3c(Nc4c(Cl)ccc5c4OCO5)ncnc3c2)CC1 [saracatinib]
In short: (§1)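 Values are thermal stability changes relative to control samples and are taken from duplicates. They are stated as log2 fold changes. Before quantification by TMTpro 16plex LC-MS/MS with equalised channel sums, K562 cells at 2×10^6 cells/mL were treated with 10 μM compound for 30 min, heated in aliquots for 3 min across 48°C-58°C, pooled, extracted in PBS with 0.5% NP-40 at 4°C, and centrifuged at 21,000xg for 90 min to give the soluble supernatant.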

alvocidib = compound: CN1CC[C@H](c2c(O)cc(O)c3c(=O)cc(-c4ccccc4Cl)oc23)[C@H](O)C1 [alvocidib]
In short: as §1

Tubastatin A = compound: CN1CCc2c(c3ccccc3n2Cc2ccc(C(=O)NO)cc2)C1 [Tubastatin A]
In short: as §1

[1] = compound: CNC(=O)C1=CC=CC=C1NC2=NC(=NC=C2Cl)NC3=C(C=C(C=C3)N4CCOCC4)OC
In short: as §1

defactinib = compound: CNC(=O)c1ccc(Nc2ncc(C(F)(F)F)c(NCc3nccnc3N(C)S(C)(=O)=O)n2)cc1 [defactinib]
In short: as §1

rucaparib = compound: CNCc1ccc(-c2[nH]c3cc(F)cc4c3c2CCNC4=O)cc1 [rucaparib]
In short: as §1

[2] = compound: CNc1nc(-c2ccc3c(N)n[nH]c3c2)cc(N2C[C@@H](C(=O)NC3CCCCC3)CC[C@H]2C)n1
In short: as §1

encorafenib = compound: COC(=O)N[C@@H](C)CNc1nccc(-c2cn(C(C)C)nc2-c2cc(Cl)cc(NS(C)(=O)=O)c2F)n1 [encorafenib]
In short: as §1

[3] = compound: COC(=O)[C@H](CCSC)NC(=O)C1=C(C=C(C=C1)NC[C@H](CS)N)C2=CC=CC=C2
In short: as §1

[4] = compound: COC1=CC=C(C=C1)CN2C=CC3=C2C=C(C=C3)C(=O)NO
In short: as §1

zotarolimus = compound: CO[C@H]1C[C@@H]2CC[C@@H](C)[C@@](O)(O2)C(=O)C(=O)N2CCCC[C@H]2C(=O)O[C@H]([C@H](C)C[C@@H]2CC[C@H](n3cnnn3)[C@H](OC)C2)CC(=O)[C@H](C)/C=C(\C)[C@@H](O)[C@@H](OC)C(=O)[C@H](C)C[C@H](C)/C=C/C=C/C=C/1C [zotarolimus]
In short: as §1

idasanutlin = compound: COc1cc(C(=O)O)ccc1NC(=O)[C@@H]1N[C@@H](CC(C)(C)C)[C@](C#N)(c2ccc(Cl)cc2F)[C@H]1c1cccc(Cl)c1F [idasanutlin]
In short: as §1

alisertib = compound: COc1cc(Nc2ncc3c(n2)-c2ccc(Cl)cc2C(c2c(F)cccc2OC)=NC3)ccc1C(=O)O [alisertib]
In short: as §1

[5] = compound: COc1cc2nc(-c3cc(F)ccc3O)nc(N[C@@H]3CNC[C@H]3C(C)(C)O)c2cc1OC
In short: as §1

gefitinib = compound: COc1cc2ncnc(Nc3ccc(F)c(Cl)c3)c2cc1OCCCN1CCOCC1 [gefitinib]
In short: as §1

[6] = compound: COc1cccc2cc(-c3nc([C@H]4CC[C@H](C(=O)O)CC4)n4ncnc(N)c34)[nH]c12
In short: as §1

lapatinib = compound: CS(=O)(=O)CCNCc1ccc(-c2ccc3ncnc(Nc4ccc(OCc5cccc(F)c5)c(Cl)c4)c3c2)o1 [lapatinib]
In short: as §1

pictilisib = compound: CS(=O)(=O)N1CCN(Cc2cc3nc(-c4cccc5[nH]ncc45)nc(N4CCOCC4)c3s2)CC1 [pictilisib]
In short: as §1

sotrastaurin = compound: CN1CCN(c2nc(C3=C(c4c[nH]c5ccccc45)C(=O)NC3=O)c3ccccc3n2)CC1 [sotrastaurin]
In short: as §1

filanesib = compound: CON(C)C(=O)N1N=C(c2cc(F)ccc2F)S[C@@]1(CCCN)c1ccccc1 [filanesib]
In short: as §1

Measured: log2 fold change

TMEM41B (UniProt Q5BJD5)
inactive: saracatinib 0.051 | alvocidib 0.051 | Tubastatin A -0.085 | [1] 0.138 | defactinib 0 | rucaparib -0.074 | [2] -0.011 | encorafenib 0.071 | [3] 0.022 | [4] 0.009 | zotarolimus 0 | idasanutlin 0.108 | alisertib -0.035 | [5] -0.282 | gefitinib 0.058 | [6] 0.09 | lapatinib 0.058 | pictilisib -0.014

TMCC2 (UniProt O75069)
inactive: saracatinib 0.004 | alvocidib -0.065 | [2] -0.15 | zotarolimus -0.098 | idasanutlin 0.025 | gefitinib 0.129

TLNRD1 (UniProt Q9H1K6)
inactive: alvocidib -0.196 | Tubastatin A -0.096 | zotarolimus -0.11

TMEM131 (UniProt Q92545)
inactive: sotrastaurin 0.003 | Tubastatin A -0.02 | [1] 0 | filanesib -0.026 | idasanutlin -0.053 | pictilisib 0.007

TMC6 (UniProt Q7Z403)
inactive: saracatinib -0.065 | alvocidib -0.057 | Tubastatin A -0.231 | [1] -0.132 | defactinib -0.073 | rucaparib 0.055 | [2] 0.038 | encorafenib 0.207 | [3] -0.035 | [4] -0.196 | zotarolimus -0.039 | idasanutlin 0.06 | alisertib 0 | [5] -0.13 | gefitinib -0.109 | [6] -0.004 | lapatinib 0.065 | pictilisib -0.004

TMEM50A (UniProt O95807)
inactive: alvocidib 0.16 | Tubastatin A -0.182 | defactinib -0.106 | [3] 0.05 | [4] -0.222 | zotarolimus -0.261 | idasanutlin 0.142 | [5] -0.264 | gefitinib -0.035 | lapatinib -0.031

TMEM256 (UniProt Q8N2U0)
inactive: [1] 0.128

TMEM35B (UniProt Q8NCS4)
inactive: saracatinib 0.067 | Tubastatin A -0.015 | [1] 0.065 | defactinib -0.191 | [2] 0.115 | [3] -0.188 | [4] -0.079 | alisertib -0.19 | gefitinib -0.049 | [6] 0.089 | pictilisib 0.045

TMPO (UniProt G5E972)
inactive: [1] -0.048 | alisertib 0.05 | [6] -0.144 | pictilisib 0.338

TMEM94 isoform 2 (UniProt Q12767)
inactive: saracatinib -0.01 | [1] -0.046 | [2] 0.057 | idasanutlin 0.056

TMEM246 (UniProt Q9BRR3)
inactive: [1] 0.108

TLE5 isoform 2 (UniProt Q08117)
inactive: saracatinib 0.163 | alvocidib 0.06 | defactinib 0.021 | rucaparib 0.009 | [2] -0.025 | encorafenib -0.02 | [3] -0.142 | zotarolimus 0.088 | idasanutlin -0.167 | alisertib 0.019 | [5] -0.058 | gefitinib -0.076 | [6] 0.077 | lapatinib 0.113 | pictilisib -0.077

TMEM184B (UniProt Q9Y519)
inactive: sotrastaurin -0.031 | Tubastatin A 0.178 | [1] 0.051 | filanesib -0.022 | alisertib 0 | [5] 0.058 | gefitinib -0.034 | [6] -0.004 | lapatinib 0.099

TMTC4 isoform 3 (UniProt Q5T4D3)
inactive: saracatinib 0.337 | [2] 0.248 | [4] -0.17

TMEM134 (UniProt Q9H6X4)
inactive: [1] -0.021 | [4] -0.163 | idasanutlin 0.044 | alisertib -0.038 | [6] 0.068 | pictilisib -0.06

2 records picked at random from those above, as already listed:
TMEM134 (UniProt Q9H6X4)
inactive: [1] -0.021 | [4] -0.163 | idasanutlin 0.044 | alisertib -0.038 | [6] 0.068 | pictilisib -0.06

TMEM246 (UniProt Q9BRR3)
inactive: [1] 0.108

The list continues:

TMEM79 (UniProt Q9BSE2)
inactive: Tubastatin A -0.122 | idasanutlin 0.127 | gefitinib 0.075

TNFAIP3 (UniProt P21580)
inactive: alvocidib -0.027 | [1] -0.154 | defactinib -0.066 | [3] 0.009 | [4] -0.071 | zotarolimus 0.058 | idasanutlin -0.014 | alisertib -0.055 | [5] 0.111 | gefitinib 0.016 | [6] -0.057 | lapatinib 0.053 | pictilisib -0.07

TMEM101 (UniProt Q96IK0)
inactive: saracatinib -0.014 | alvocidib -0.063 | Tubastatin A -0.031 | [1] 0.018 | defactinib -0.054 | rucaparib -0.013 | [2] -0.024 | encorafenib 0.165 | [3] 0.037 | [4] -0.075 | zotarolimus -0.005 | idasanutlin -0.145 | alisertib -0.047 | [5] -0.083 | gefitinib -0.051 | [6] -0.025 | lapatinib -0.001 | pictilisib 0.061

TMEM267 (UniProt Q0VDI3)
inactive: alvocidib -0.028 | Tubastatin A -0.041 | [1] 0.132 | defactinib -0.004 | rucaparib -0.07 | encorafenib -0.094 | [3] 0.079 | [4] -0.233 | zotarolimus -0.164 | idasanutlin 0.045 | [5] 0.144 | lapatinib 0.054 | pictilisib 0.162

TMCO6 isoform 2 (UniProt Q96DC7)
inactive: saracatinib -0.055 | [1] -0.107 | [2] -0.273 | pictilisib -0.082

TMED8 (UniProt Q6PL24)
inactive: saracatinib -0.018 | alvocidib -0.091 | Tubastatin A 0.047 | [1] 0.119 | defactinib -0.043 | rucaparib 0.075 | [2] 0.088 | encorafenib 0.087 | [3] -0.049 | [4] 0.266 | zotarolimus -0.088 | idasanutlin -0.027 | alisertib 0.148 | [5] 0.038 | gefitinib -0.226 | [6] -0.25 | lapatinib 0.024 | pictilisib -0.002

TMEM59 (UniProt Q9BXS4)
inactive: saracatinib -0.469 | alvocidib 0.155 | Tubastatin A 0.183 | [1] 0.175 | [2] -0.227 | [4] 0.437 | zotarolimus 0.051 | idasanutlin -0.023 | alisertib -0.153 | [5] 0.068 | gefitinib -0.104 | [6] -0.161 | lapatinib 0.051 | pictilisib 0.14

TMEM69 (UniProt Q5SWH9)
inactive: alvocidib 0.045 | Tubastatin A 0.084 | [1] -0.09 | rucaparib 0.009 | encorafenib 0.051 | [4] -0.013 | zotarolimus 0.038 | idasanutlin -0.08 | alisertib 0.047 | [5] 0.05 | gefitinib -0.109 | [6] 0.164 | lapatinib -0.008 | pictilisib -0.115

TMEM129
inactive: saracatinib -0.039 | Tubastatin A 0.241 | [2] 0.025 | [5] -0.071 | gefitinib 0.316 | lapatinib 0.085

TMEM179B (UniProt Q7Z7N9)
inactive: sotrastaurin 0.151 | Tubastatin A 0.036 | [1] 0.044 | rucaparib 0.026 | encorafenib -0.015 | [4] -0.019 | filanesib -0.162 | zotarolimus -0.205 | idasanutlin 0.088 | alisertib -0.007 | [5] -0.03 | gefitinib 0.039 | [6] 0.175 | lapatinib 0.032 | pictilisib 0.036

TMEM98 (UniProt Q9Y2Y6)
inactive: alisertib -0.448 | [5] 0.003 | gefitinib 0.126 | [6] 0.157 | lapatinib 0.107

TMEM127 (UniProt O75204)
inactive: alvocidib 0.056 | Tubastatin A -0.015 | [1] 0.038 | zotarolimus -0.004 | idasanutlin -0.019 | gefitinib -0.081

TMEM44 (UniProt Q2T9K0)
inactive: [1] -0.086 | [4] -0.291 | gefitinib -0.349

TMEM260 (UniProt Q9NX78)
inactive: saracatinib 0.048 | Tubastatin A 0.056 | [1] 0.022 | [2] -0.16 | [4] 0.1 | idasanutlin 0.15 | alisertib -0.044 | [6] 0.118

TMSB4X (UniProt P62328)
inactive: saracatinib 0.18 | alvocidib -0.076 | defactinib 0.024 | rucaparib 0.322 | [2] 0 | encorafenib -0.16 | [3] 0.212 | [4] -1.26 | zotarolimus -0.167 | idasanutlin 0.389 | alisertib -0.54 | [5] 0.032 | gefitinib 0.191 | [6] 0.728 | lapatinib -0.432
